Measurements published in paper PMC4004549.

Biological target: T1, muscleblind-like protein 1 (MBNL1) (human (endogenous in DM1 patient fibroblasts)) (UniProt Q9NR56)
T1 sequence: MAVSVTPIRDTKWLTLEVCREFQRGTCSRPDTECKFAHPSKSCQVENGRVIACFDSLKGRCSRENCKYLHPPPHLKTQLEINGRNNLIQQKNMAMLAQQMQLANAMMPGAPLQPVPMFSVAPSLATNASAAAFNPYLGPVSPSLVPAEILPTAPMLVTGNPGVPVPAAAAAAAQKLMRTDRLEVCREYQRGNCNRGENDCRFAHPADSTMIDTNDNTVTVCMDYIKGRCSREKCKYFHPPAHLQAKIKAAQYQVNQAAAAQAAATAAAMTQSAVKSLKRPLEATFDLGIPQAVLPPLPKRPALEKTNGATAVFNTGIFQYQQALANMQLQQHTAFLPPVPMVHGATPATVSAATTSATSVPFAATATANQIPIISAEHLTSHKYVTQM
Test: FRET or BRET; acceptor photobleaching FRET (AP-FRET) in fixed, permeabilised DM1 fibroblasts; endogenous proteins labelled by primary antibodies and Alexa488 or Alexa555 secondary antibodies; E% distribution compared with donor-only control; which protein was donor is not told

hnRNPH was tested, and the binding was “no binding”.

No constants are given. Whether binding was seen depends on the method and setting. In cells and extracts the contact can be indirect.
